Assay results: publication PMC12040169 (PLOS Biology, 2025)
The other results are listed elsewhere or left out.

tested on: T1, CTL2-GFP (C. trachomatis L2/434/Bu, GFP-expressing); parameters: species or system HeLa; Intracellular C. trachomatis growth in HeLa cells, bulk GFP fluorescence relative to DMSO; conditions: bulk GFP, single well; 28.5 h, 10 µM; inhibitor
T1 construct: L2/434/Bu, GFP-expressing

Compared with `CCn1cc(-c2cncn2CC(C)n2nc(C)cc2C)cn1` (centres unmarked) [CBK281775], `CCCNc1cncc(-c2cccc(F)c2)n1` [CBK065441] is lower in “% of control remaining” value: 137.293% for the first, 99.7552% for the second.

Going from `CC(C)(CO)C(O)C(=O)NC1CCCC(C(=O)O)C1` (centres unmarked) [CBK286609] to `C[C@H](NC(=O)C1CCN(C(=O)OC(C)(C)C)CC1)C(=O)O` [CBK286730], the “% of control remaining” value rises from 114.668% to 145.594%.

Compared with `Cc1cc(NC(=O)c2cc(C)oc2C)no1` [CBK058081], `Cc1cc(NC(=O)NC2CCSc3ccccc32)no1` (centres unmarked) [CBK259296] is lower in “% of control remaining” value: 114.958% for the first, 100.183% for the second.

First: CC(=O)Nc1ccc(S(=O)(=O)/N=C(\Nc2nc(C)cc(C)n2)Nc2ccccc2F)cc1 [CBK266134]
Second: CC(=O)Nc1ccc(S(=O)(=O)N2CCN(c3ccc([N+](=O)[O-])cc3C(F)(F)F)CC2)cc1 [CBK264944]
The “% of control remaining” value of the first is higher: 115.307% for the first, 83.3361% for the second.

First: CC(C)Nc1nccnc1SCCN(C)C [CBK105290]
Second: CN(C)CCSc1nc2cc(Cl)ccc2o1 [CBK266337C]
The “% of control remaining” value of the first is higher: 141.723% for the first, 108.403% for the second.

First: Cn1ncc(N2CCN(C(=O)CCCOc3ccccc3)CC2)cc1=O [CBK306937]
Second: CC(=O)N1CCN(c2ccc(NC(=O)CSc3ccc(C)cc3)cc2)CC1 [CBK269854]
The “% of control remaining” value of the first is higher: 125.593% for the first, 113.649% for the second.

Compared with `Cc1nc2c(c(=O)[nH]1)CCN(Cc1[nH]c3ccccc3c1C)C2` [CBK283995], `Fc1ccc(CN2CCC3(C2)c2[nH]c4ccccc4c2CCN3Cc2ccc(F)cc2)cc1` (centres unmarked) [CBK059467] is higher in “% of control remaining” value: 117.573% for the first, 164.373% for the second.

Going from `Oc1ccc(-n2ncc(-c3ccc(F)cc3F)n2)cc1` [CBK112736] to `COc1cc(CNc2cncc(-c3ccc(F)cc3F)n2)cc(OC)c1OC` [CBK065826], the “% of control remaining” value falls from 115.875% to 103.297%.

First: CC(C)(C)c1ccc(N(C2CCNCC2)S(=O)(=O)c2cccc(C(F)(F)F)c2)cc1 [CBK165056T]
Second: Cn1ccnc1CN1CCNC(=O)C1c1ccccc1C(F)(F)F (centres unmarked) [CBK306415]
The “% of control remaining” value of the first is lower: 33.0553% for the first, 98.4775% for the second.

First: O=C(CSc1nnc(COc2ccc(Br)cc2)o1)OC1CCCCC1 [CBK027482]
Second: O=C(O)C1(c2ccc(Br)cc2)CCCC1 [CBK287134]
The “% of control remaining” value of the first is higher: 150.06% for the first, 118.065% for the second.

First: Cc1ccc(S(=O)(=O)NCCc2cn3ccc(C)cc3n2)cc1 [CBK287630]
Second: CCCc1ccc(S(=O)(=O)NCC(=O)OCC)cc1 [CBK034429]
The “% of control remaining” value of the first is higher: 133.222% for the first, 70.8344% for the second.

Compared with `C[C@H]1CN2C[C@H](O)CC2CN1Cc1cccn1Cc1ccccc1F` (some centres unmarked) [CBK285165], `O=C(CN1CCC(NC(=O)c2cccs2)CC1)NCc1ccccc1F` [CBK304901] is higher in “% of control remaining” value: 108.802% for the first, 133.72% for the second.

First: O=C(Nc1nccs1)c1c(O)n(Cc2ccccc2)c2ccccc2c1=O [CBK291173]
Second: Nc1ncnc2c1nc(SCc1ccccc1)n2Cc1ccccc1 [CBK288181]
The “% of control remaining” value of the first is higher: 136.21% for the first, 106.448% for the second.

Compared with `Cc1ccc(-c2ccc(CCC(=O)O)n2NC(N)=S)cc1` [CBK265870], `Cc1ccc(SC(C)C(=O)Nc2cc(Cl)ccc2O)cc1` (centres unmarked) [CBK268610] is lower in “% of control remaining” value: 230.119% for the first, 115.321% for the second.

`O=S(=O)(Oc1ccc(-c2cnc3ccccc3n2)cc1)c1ccccc1` [CBK261104] and `NS(=O)(=O)c1ccc(CCNC(=O)c2ccccc2Oc2ccccc2)cc1` [CBK264394] are the same in “% of control remaining” value: 100% for the first, 100% for the second.

Going from `Cc1cc(C[C@@H]2CCC[C@H]2NCc2ccncc2)on1` [CBK284934] to `O=C(CCc1ccncc1)N1CCOC(c2ccc(F)cc2F)C1` (centres unmarked) [CBK304692], the “% of control remaining” value rises from 93.3217% to 107.689%.

Compared with `CCc1cc(CNC(=O)C2CN(Cc3ccc(Cl)cc3)C2)on1` [CBK281564], `Cc1cc(COC(=O)Nc2ccc(Cl)cc2)no1` [CBK086560] is higher in “% of control remaining” value: 100.954% for the first, 104.467% for the second.

Going from `CC[C@H]1C[N@@]2CC[C@H]1C[C@@H]2CNC(=O)Nc1cccc(C#N)c1` [CBK288748] to `CC(C)NC(=O)C1CC2CCC1(C)CC21NC(=O)c2ccccc2O1` (centres unmarked) [CBK285261], the “% of control remaining” value falls from 131.739% to 120.13%.

First: CCOC(=O)c1c(NC(=O)CN2CCCCC2)sc2c1CCCC2O (centres unmarked) [CBK261644]
Second: O=C(Cn1c(C2CCCNC2)cc2cccnc21)N1CCCC1 (centres unmarked) [CBK285060]
The “% of control remaining” value of the first is lower: 121.745% for the first, 139.249% for the second.

First: C/C(C(=O)O)=C(/C)C(=O)N1CCC2(CC1)NCCc1c2[nH]c2ccc(C)cc12 [CBK047026]
Second: O=C1CC2(CCN(C(=O)c3ccccc3F)CC2)Oc2c(Cl)cc(Cl)cc21 [CBK156453]
The “% of control remaining” value of the first is lower: 95.0244% for the first, 103.894% for the second.

First: O=C(CSc1ccccc1)Nc1cccc(NC(=O)c2cccs2)c1 [CBK266788]
Second: COc1cccc(NC(=O)c2cc3ccccc3o/c2=N\O)c1 [CBK288387]
The “% of control remaining” value of the first is lower: 129.111% for the first, 195.818% for the second.

First: COCC(=O)N1CCN(C(=O)c2cccs2)[C@@H](C(=O)OC)C1 [CBK289614]
Second: CC(C)(CC(=O)O)CC(=O)Nc1ccc(N2CCCC2=O)cc1 [CBK299787]
The “% of control remaining” value of the first is higher: 102.238% for the first, 94.6878% for the second.

First: CCN(Cc1ccccc1)C(=O)Nc1ccc2c(c1)OCCO2 [CBK155231]
Second: CCN1C(=O)COC[C@@H]1[C@H](O)c1ccc(NC(=O)COc2ccccc2)cc1 [CBK289685]
The “% of control remaining” value of the first is lower: 100% for the first, 134.889% for the second.

Compared with `O=C(CN1C(=O)c2ccccc2S1(=O)=O)Nc1ccccc1C(=O)N1CCOCC1` [CBK266975], `CC(C)c1ccc(N2C(=O)[C@@H]3C[C@@H](NC(=O)c4cccn4C)CCN3C2=O)cc1` [CBK289547] is lower in “% of control remaining” value: 147.747% for the first, 108.124% for the second.

Going from `O=C(CCc1ccccc1)NNC(=O)C1C2C=CC(C2)C1C(=O)O` (centres unmarked) [CBK267541] to `O=C1NC2CS(=O)(=O)CC2N1Cc1ccccc1` (centres unmarked) [CBK009306], the “% of control remaining” value falls from 132.042% to 101.161%.

Going from `N=C(N)NCc1ccc(Cl)cc1` [CBK002260] to `NC(=O)[C@@H]1C[C@@H](O)[C@H](O)[C@H]2[C@@H]1N(c1ccc(Cl)cc1)C(=S)N2CC1CCCCC1` [CBK288933], the “% of control remaining” value falls from 157.672% to 120.393%.

First: CCOc1ccc(-c2ccnc(N3CCN(CC)CC3)n2)cc1C(=O)O [CBK307697]
Second: COc1ccc(N2CCN(c3cncc(-c4cccc(N)c4)n3)CC2)cc1OC [CBK066126]
The “% of control remaining” value of the first is lower: 128.92% for the first, 176.36% for the second.

Compared with `Nc1ccc(Oc2ccc3nc4c5cc(I)ccc5c5ccc(I)cc5c4nc3c2)cc1` [CBK261978], `O=c1oc(-c2cccc(F)c2)nc2cc(Cc3ccc4c(=O)oc(-c5cccc(F)c5)nc4c3)ccc12` [CBK262775] is higher in “% of control remaining” value: 90.7208% for the first, 91.2436% for the second.

Going from `Nc1nnc(Sc2nccnc2N2CCCC2)s1` [CBK093804] to `O=C(c1ccccn1)C1CCCN(c2nccc(CCC(F)(F)F)n2)C1` (centres unmarked) [CBK306775], the “% of control remaining” value falls from 130.538% to 34.0231%.

Going from `Cc1ccc2nc(-c3ccc(NC(=O)CSc4nnc(C)s4)cc3)sc2c1` [CBK266185] to `Cc1nc2ccc(NC(=O)CCn3nc(C)c(Cl)c3C)cc2s1` [CBK281634], the “% of control remaining” value falls from 221.961% to 94.8033%.

Going from `c1ccc(OCCN2CCCN(c3nccc(OCC4COc5ccccc5O4)n3)CC2)cc1` (centres unmarked) [CBK083980] to `Cc1ccc(S(=O)(=O)N2CCN(CC(O)COc3ccc4ccccc4c3)CC2)cc1` (centres unmarked) [CBK266239], the “% of control remaining” value rises from 120.184% to 120.623%.

First: O=S(=O)(CC(CN1CCCCC1)N1CCCCC1)c1ccc2ccccc2c1 (centres unmarked) [CBK267087]
Second: Cc1cccnc1C(NC(=O)C1CCN(S(=O)(=O)c2cccs2)CC1)c1cccs1 (centres unmarked) [CBK060147]
The “% of control remaining” value of the first is higher: 123.711% for the first, 96.9912% for the second.

Compared with `COC(=O)c1cc(NC(=O)OC(C)(C)C)ccc1O` [CBK016529], `COC(=O)c1cc(C(=O)Nc2ccc(OCCC(N)=O)cc2)c[nH]1` [CBK305486] is lower in “% of control remaining” value: 154.177% for the first, 112.33% for the second.

Going from `FC(F)(F)c1ccnc(OCc2cccnc2)c1` [CBK115784] to `O=C(c1n[nH]nc1-c1ccccc1)N1CCCC(C(F)(F)F)C1` (centres unmarked) [CBK164228], the “% of control remaining” value rises from 64.7603% to 139.502%.

Compared with `CCOC(=O)CC1C(=O)NCCN1Cc1ccoc1` (centres unmarked) [CBK270066], `CCOC(=O)c1cnc(C2CC2)nc1NCc1cccc(C)c1C` [CBK114707] is lower in “% of control remaining” value: 145.695% for the first, 110.305% for the second.

First: COc1ccccc1CNC(=O)c1cnc2sc(C)cn2c1=O [CBK287708]
Second: COc1cc(/C=N/N=C(/Nc2ccc(C)cc2)c2nc3ccccc3s2)ccc1O [CBK265029]
The “% of control remaining” value of the first is lower: 119.609% for the first, 128.635% for the second.

First: COc1cc(C(c2nnnn2C2CCCCC2)N2CCN(C)CC2)cc(OC)c1OC (centres unmarked) [CBK142338C]
Second: Cc1cn(C(C)C(=O)N(C)C)nc1C1CCCCC1 (centres unmarked) [CBK016092]
The “% of control remaining” value of the first is higher: 122.213% for the first, 110.37% for the second.

First: CC(C)(C)C(=O)N1CCC(c2nnc(-c3ccsc3)o2)CC1 [CBK283378]
Second: Cc1nc2ccc(C(=O)N(C)CCN(C)C)cn2c1N(C)CC1CCCCC1 [CBK145894]
The “% of control remaining” value of the first is lower: 115.261% for the first, 139.839% for the second.

First: COC(=O)c1cccc(COC(=O)c2ccc3nc(C)c(C)nc3c2)c1 [CBK269641]
Second: CCCNCCc1ccc2c(c1)C(=O)N(Cc1ccc(OC)cc1)C2=O [CBK011826C]
The “% of control remaining” value of the first is lower: 104.03% for the first, 122.632% for the second.

Compared with `Cc1nnc(N/N=C/c2cn(Cc3c(F)cccc3Cl)c3ccccc23)n1N` [CBK278277C], `COCCOCN1C(=O)CC2(C1=O)C(=O)N(CC(=O)O)c1ccc(F)cc12` (centres unmarked) [CBK076163] is higher in “% of control remaining” value: 107.527% for the first, 144.457% for the second.
